Data from the supplement of paper PMC10849652.
This is one part of the list.

Amino acid sequences for entries named in this document (tags omitted). A change or cut given only in a name is not applied to a line headed by its entry.
UniProt Q14781, whole entry, looked up: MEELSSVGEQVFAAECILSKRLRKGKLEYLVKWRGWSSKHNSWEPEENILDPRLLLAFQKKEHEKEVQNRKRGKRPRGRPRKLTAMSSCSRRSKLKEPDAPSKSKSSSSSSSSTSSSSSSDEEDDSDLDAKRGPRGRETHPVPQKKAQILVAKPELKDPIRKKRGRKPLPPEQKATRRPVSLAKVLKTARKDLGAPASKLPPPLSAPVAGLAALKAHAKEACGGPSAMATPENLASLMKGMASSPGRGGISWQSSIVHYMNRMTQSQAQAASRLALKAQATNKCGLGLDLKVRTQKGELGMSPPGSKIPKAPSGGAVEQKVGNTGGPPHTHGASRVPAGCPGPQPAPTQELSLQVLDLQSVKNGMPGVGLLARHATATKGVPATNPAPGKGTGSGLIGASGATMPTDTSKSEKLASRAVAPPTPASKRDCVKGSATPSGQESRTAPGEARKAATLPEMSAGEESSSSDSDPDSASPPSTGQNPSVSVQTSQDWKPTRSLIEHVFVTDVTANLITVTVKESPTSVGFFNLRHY
UniProt Q9UK58: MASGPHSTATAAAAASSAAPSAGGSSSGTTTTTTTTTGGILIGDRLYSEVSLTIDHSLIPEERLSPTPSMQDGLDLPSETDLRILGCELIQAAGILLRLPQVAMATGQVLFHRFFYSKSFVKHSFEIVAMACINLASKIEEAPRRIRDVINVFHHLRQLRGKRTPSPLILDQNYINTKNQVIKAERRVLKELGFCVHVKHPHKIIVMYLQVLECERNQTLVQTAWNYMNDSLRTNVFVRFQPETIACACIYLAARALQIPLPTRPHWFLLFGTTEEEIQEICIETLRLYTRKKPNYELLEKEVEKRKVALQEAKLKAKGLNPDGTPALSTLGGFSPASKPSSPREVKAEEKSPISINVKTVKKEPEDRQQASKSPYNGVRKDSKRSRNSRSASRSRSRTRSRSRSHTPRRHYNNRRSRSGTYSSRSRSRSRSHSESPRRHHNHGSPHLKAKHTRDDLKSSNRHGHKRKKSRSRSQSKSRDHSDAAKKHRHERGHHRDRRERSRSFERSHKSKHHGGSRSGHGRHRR
UniProt Q9UKL3: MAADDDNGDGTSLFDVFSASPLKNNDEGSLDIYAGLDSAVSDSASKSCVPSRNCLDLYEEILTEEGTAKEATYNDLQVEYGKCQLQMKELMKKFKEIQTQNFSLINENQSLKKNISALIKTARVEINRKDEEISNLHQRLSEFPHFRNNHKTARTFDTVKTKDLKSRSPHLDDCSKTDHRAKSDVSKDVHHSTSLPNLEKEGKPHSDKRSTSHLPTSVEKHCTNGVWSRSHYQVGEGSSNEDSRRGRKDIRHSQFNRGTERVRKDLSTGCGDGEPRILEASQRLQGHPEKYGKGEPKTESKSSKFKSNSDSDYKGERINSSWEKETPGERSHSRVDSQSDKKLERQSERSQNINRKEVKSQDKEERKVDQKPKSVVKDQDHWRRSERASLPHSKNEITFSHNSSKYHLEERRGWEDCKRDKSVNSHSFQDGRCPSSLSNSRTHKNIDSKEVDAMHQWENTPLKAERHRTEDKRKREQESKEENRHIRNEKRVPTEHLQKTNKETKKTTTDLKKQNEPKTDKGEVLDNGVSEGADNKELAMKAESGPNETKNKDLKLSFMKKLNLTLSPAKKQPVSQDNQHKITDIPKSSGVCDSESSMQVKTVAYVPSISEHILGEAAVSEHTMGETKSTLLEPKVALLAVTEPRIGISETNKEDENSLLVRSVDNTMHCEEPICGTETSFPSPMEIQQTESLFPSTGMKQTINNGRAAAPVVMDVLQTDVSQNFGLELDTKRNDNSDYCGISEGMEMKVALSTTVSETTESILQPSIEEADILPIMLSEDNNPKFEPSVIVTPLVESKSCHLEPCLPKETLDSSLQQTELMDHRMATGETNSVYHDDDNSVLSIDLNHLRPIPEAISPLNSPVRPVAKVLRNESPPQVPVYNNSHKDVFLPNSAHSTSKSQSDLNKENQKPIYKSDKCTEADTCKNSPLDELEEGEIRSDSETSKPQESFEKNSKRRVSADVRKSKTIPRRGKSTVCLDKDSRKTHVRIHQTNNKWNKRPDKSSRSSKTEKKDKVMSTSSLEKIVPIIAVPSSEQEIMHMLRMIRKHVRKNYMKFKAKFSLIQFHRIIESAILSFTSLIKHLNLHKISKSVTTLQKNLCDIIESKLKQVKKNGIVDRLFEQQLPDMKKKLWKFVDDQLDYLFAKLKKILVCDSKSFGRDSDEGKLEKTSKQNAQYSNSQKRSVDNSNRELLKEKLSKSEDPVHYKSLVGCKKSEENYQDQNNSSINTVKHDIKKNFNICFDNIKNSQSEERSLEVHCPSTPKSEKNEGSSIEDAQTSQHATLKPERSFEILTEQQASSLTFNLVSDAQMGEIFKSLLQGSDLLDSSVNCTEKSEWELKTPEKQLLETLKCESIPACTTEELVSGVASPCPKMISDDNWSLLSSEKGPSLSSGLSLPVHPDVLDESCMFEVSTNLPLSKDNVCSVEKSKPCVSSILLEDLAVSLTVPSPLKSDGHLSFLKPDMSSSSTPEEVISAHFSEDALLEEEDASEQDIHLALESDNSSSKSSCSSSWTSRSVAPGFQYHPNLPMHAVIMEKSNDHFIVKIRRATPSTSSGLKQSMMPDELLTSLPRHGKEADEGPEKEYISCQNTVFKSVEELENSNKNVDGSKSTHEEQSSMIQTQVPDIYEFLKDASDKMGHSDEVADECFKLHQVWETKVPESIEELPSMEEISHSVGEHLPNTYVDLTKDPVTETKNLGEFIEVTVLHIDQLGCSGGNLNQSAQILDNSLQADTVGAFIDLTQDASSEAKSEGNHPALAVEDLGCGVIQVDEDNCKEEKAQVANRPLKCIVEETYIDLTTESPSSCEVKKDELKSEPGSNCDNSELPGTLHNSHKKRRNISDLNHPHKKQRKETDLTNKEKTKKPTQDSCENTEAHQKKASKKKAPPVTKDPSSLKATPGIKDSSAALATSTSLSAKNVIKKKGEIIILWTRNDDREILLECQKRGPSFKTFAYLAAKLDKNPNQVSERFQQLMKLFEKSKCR
UniProt P15529: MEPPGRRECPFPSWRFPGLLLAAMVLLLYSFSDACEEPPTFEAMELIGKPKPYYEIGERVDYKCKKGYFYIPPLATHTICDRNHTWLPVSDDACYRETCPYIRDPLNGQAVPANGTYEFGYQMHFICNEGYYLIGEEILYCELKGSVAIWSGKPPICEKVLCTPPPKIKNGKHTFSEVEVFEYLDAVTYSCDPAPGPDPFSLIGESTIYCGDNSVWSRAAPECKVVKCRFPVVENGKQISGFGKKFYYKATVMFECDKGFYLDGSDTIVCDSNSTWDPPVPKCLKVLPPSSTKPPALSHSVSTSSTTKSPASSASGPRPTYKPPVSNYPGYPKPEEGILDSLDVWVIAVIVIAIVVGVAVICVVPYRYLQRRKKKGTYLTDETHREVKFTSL
UniProt P24385, whole entry, looked up: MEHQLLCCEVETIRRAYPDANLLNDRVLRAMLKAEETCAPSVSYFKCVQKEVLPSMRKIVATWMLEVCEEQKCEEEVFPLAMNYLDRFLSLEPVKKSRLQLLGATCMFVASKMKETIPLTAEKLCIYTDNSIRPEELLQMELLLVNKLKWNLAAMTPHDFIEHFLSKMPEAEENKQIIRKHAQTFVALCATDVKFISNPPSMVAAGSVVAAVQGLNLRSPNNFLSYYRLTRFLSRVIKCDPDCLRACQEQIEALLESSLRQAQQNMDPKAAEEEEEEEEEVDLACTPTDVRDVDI
UniProt Q8WTX7: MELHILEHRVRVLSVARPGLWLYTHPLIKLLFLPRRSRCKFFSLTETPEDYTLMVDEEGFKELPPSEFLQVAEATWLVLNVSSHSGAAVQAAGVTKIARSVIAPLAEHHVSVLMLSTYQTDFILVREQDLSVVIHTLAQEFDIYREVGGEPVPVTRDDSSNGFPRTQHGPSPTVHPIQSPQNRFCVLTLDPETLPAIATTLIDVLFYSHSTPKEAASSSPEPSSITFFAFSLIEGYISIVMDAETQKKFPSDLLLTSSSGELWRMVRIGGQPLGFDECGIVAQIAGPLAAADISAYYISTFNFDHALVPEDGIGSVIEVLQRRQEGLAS
UniProt Q3V6T2: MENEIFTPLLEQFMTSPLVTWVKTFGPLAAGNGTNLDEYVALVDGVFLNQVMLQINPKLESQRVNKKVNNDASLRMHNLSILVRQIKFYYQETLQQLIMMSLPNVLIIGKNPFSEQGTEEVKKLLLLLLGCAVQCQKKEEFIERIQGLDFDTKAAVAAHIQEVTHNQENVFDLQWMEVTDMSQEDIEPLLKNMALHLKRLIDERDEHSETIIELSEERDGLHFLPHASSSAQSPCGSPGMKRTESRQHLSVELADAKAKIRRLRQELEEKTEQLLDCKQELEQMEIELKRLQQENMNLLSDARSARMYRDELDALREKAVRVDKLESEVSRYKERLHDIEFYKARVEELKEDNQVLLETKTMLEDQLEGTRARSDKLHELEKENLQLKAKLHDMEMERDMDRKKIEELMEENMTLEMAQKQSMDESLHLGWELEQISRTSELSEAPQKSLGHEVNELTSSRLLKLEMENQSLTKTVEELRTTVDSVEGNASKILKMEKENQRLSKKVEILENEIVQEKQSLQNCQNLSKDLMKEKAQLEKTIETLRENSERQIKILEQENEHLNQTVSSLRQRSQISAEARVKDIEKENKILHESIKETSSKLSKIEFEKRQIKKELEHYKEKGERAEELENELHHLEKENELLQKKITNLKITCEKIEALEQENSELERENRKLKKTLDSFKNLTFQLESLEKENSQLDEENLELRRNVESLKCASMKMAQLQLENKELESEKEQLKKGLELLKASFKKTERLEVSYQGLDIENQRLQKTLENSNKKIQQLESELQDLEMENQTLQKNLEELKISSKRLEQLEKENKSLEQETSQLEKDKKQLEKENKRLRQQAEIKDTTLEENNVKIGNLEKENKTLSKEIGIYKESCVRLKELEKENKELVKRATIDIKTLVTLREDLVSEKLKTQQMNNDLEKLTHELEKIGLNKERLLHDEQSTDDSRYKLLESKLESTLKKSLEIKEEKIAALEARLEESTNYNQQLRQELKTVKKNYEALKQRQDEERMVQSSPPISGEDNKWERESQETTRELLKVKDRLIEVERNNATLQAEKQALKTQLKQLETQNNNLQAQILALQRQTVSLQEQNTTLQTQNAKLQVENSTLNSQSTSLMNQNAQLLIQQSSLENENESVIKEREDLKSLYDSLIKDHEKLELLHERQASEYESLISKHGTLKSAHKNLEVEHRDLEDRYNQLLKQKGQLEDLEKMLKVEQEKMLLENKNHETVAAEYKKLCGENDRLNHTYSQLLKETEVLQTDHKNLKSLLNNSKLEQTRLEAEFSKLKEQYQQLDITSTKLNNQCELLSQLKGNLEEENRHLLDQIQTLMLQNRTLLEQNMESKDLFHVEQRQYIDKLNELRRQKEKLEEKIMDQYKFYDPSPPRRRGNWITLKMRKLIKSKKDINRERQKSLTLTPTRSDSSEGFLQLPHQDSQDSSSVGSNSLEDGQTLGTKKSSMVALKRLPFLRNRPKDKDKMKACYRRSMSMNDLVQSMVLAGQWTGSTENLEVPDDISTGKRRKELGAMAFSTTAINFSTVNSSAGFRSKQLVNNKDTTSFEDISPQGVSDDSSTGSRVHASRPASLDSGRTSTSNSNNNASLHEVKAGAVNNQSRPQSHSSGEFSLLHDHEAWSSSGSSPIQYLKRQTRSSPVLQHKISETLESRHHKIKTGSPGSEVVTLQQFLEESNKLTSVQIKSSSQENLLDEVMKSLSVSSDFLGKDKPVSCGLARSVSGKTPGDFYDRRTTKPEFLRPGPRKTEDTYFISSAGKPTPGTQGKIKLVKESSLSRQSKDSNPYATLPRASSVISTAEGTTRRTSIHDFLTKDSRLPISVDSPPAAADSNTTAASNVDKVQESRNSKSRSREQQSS
UniProt Q5ZPR3: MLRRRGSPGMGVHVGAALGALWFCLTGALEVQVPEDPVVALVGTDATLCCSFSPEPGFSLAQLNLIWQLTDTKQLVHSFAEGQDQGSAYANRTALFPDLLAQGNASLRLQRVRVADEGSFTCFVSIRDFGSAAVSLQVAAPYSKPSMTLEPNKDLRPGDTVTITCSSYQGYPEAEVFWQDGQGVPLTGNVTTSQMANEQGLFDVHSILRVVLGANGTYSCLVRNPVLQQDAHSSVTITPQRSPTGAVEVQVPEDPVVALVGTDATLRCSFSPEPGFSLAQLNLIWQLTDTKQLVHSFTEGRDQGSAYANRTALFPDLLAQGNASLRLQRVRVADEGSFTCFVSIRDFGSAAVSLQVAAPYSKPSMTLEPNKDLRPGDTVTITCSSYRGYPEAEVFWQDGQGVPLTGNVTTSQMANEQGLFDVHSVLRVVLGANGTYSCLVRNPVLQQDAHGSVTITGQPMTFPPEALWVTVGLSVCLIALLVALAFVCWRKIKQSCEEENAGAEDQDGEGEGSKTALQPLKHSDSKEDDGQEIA

What was measured:
Assay in all cases: log2 fold change, soluble protein after heating vs DMSO (PISA); higher = thermal stabilisation; K562 lysate, 10 uM; active = over 0.2 and 3.5 SD of the protein, either way, in both replicates (recomputed)
[1] = compound: CCCS(=O)(=O)Nc1ccc(F)c(C(=O)c2c[nH]c3ncc(Cl)cc23)c1F
How it was run: (§1)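 Log-two fold change in thermal stability relative to solvent controls is reported from duplicates. For each sample, crude K562 extract from dounce-homogenised pellets in PBS pH 7.4 with 1 mM MgCl2, at 1 mg/mL protein, was treated with 10 μM compound for 30 min. Aliquots heated for 3 min across 48°C-58°C were pooled, brought to 0.5% NP-40 at 4°C and cleared at 21,000xg for 90 min. The supernatant was quantified by TMTpro 16plex LC-MS/MS with channel sums equalised.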

volasertib = compound: CC[C@@H]1C(=O)N(C)c2cnc(Nc3ccc(C(=O)N[C@H]4CC[C@H](N5CCN(CC6CC6)CC5)CC4)cc3OC)nc2N1C(C)C [volasertib]
How it was run: as §1

[2] = compound: CC[C@@H]1C(=O)N(C)c2cnc(Nc3ccc(C(=O)NC4CCN(C)CC4)cc3OC)nc2N1C1CCCC1
How it was run: as §1

[3] = compound: CCn1cc(-c2ccnc3[nH]c(-c4cccc(CN(C)C)c4)cc23)c(-c2ccc(NC(=O)N(C)C)cc2)n1
How it was run: as §1

[4] = compound: CN1CCC(CNc2ccc3ncc(-c4cccc(OC(F)(F)F)c4)n3n2)CC1
How it was run: as §1

sotrastaurin = compound: CN1CCN(c2nc(C3=C(c4c[nH]c5ccccc45)C(=O)NC3=O)c3ccccc3n2)CC1 [sotrastaurin]
How it was run: as §1

barasertib = compound: CCN(CCCOc1ccc2c(Nc3cc(CC(=O)Nc4cccc(F)c4)[nH]n3)ncnc2c1)CCOP(=O)(O)O [barasertib]
How it was run: as §1

[5] = compound: CCn1c(C(=O)N(C2CC2)C2CC2)cc2c3c(ncn3C)c(Nc3cc(C)n(C)n3)nc21
How it was run: as §1

saracatinib = compound: CN1CCN(CCOc2cc(OC3CCOCC3)c3c(Nc4c(Cl)ccc5c4OCO5)ncnc3c2)CC1 [saracatinib]
How it was run: as §1

Measured: log2 fold change

CBX2 (UniProt Q14781)
inactive: [1] 0.041 | volasertib 0.017

CCNL1 (UniProt Q9UK58)
inactive: [1] 0.078 | [2] 0 | volasertib -0.017 | [3] -0.21 | [4] 0.021 | sotrastaurin -0.035

CASP8AP2 (UniProt Q9UKL3)
inactive: barasertib 0.034 | [2] 0.034 | [5] -0.107 | [3] -0.086 | [4] -0.012 | sotrastaurin 0.078

Reprinted at random: two entries already listed.
CASP8AP2 (UniProt Q9UKL3)
inactive: barasertib 0.034 | [2] 0.034 | [5] -0.107 | [3] -0.086 | [4] -0.012 | sotrastaurin 0.078

CCNL1 (UniProt Q9UK58)
inactive: [1] 0.078 | [2] 0 | volasertib -0.017 | [3] -0.21 | [4] 0.021 | sotrastaurin -0.035

(cont.)

CD46 (UniProt P15529)
inactive: sotrastaurin 0.161

CCRL2 isoform 2 (UniProt O00421)
inactive: barasertib 0.147 | [5] -0.124

CCND1 (UniProt P24385)
inactive: [3] -0.345 | [4] 0.09 | sotrastaurin -0.072

CCAR2 (UniProt G3V119)
inactive: [1] 0.087 | volasertib -0.074

CBX3 (UniProt B8ZZ43)
inactive: [5] 0.013 | [3] -0.08 | [4] 0.116 | sotrastaurin 0.06

CASTOR1 (UniProt Q8WTX7)
inactive: sotrastaurin 0.081

CCDC88A isoform 2 (UniProt Q3V6T2)
inactive: [3] -0.048 | [4] 0.039

CCDC18 (UniProt Q5T9S5)
inactive: [2] -0.167 | [5] -0.128 | [3] -0.235 | [4] 0.087 | saracatinib 0.005 | sotrastaurin -0.127

CD276 (UniProt Q5ZPR3)
inactive: [5] 0.06 | [3] 0.12 | [4] 0.033
